Data taken from article PMC10333884, “Large‐scale phosphomimetic screening identifies phospho‐modulated motif‐based protein interactions” (Molecular Systems Biology, 2023).
No constants are given. Whether binding was seen depends on the method and setting. Some results given as binding are weak or reduced against the parent protein; the word gives no strength.

Biological target: T1, GGA1 VHS domain (human) (UniProt Q9UJY5)
T1 sequence: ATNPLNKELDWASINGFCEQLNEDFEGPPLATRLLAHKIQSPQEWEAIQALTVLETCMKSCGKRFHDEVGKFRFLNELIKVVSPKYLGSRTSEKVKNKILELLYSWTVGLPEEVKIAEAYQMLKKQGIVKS
Assay: ITC; peptide titrated into the protein domain in about 10-fold excess, 16 injections, iTC200; 50 mM sodium phosphate pH 7.4, 1 mM DTT; technical triplicates (GGA1 VHS: duplicates); both purified

YKSPTSDDISLLHESQS [RNF11 6-21 peptide, wild-type]
binding: binds
